Measured values from article PMC9964404, “Molecular Modeling and In Vitro Evaluation of Piplartine Analogs against Oral Squamous Cell Carcinoma” (Molecules, 2023).
Several values for one entry are separate records, joined by “and”; a condition that tells them apart may be missing. Equal entries are not always repeated.

How the values were obtained:
[1] = test system: Oral Tumor Cells (SCC9, SCC4); test: MTT cell viability assay, average of OSCC lines SCC9 and SCC4; format: cell-based, human; details: fibroblast IC50 / average IC50 of SCC9 and SCC4
Method: (§1) SCC cells (SCC9 and SCC4), derived from human tongue OSCC, were obtained by (ATCC® CRL-1629 and CRL-1624) and maintained in DMEM/F12 1:1 medium (Dulbecco’s modified Eagle’s medium and Ham’s F12 medium, Gibco (Thermo Fisher, Waltham, MA, USA), supplemented with 10% (v/v) FBS (Fetal Bovine Serum; Invitrogen, Thermo Fisher, Waltham, MA, USA) and 400 ng/mL hydrocortisone (Sigma-AldrichCo., St. Louis, MO, USA). Primary normal gingival fibroblast human (PCS201 018TM) and other tumor cells B16-F10 (CRL-6475), Hep G2 (HB-8065), and HT-29 (HTB-38) were also obtained at ATCC and maintained in DMEM supplemented with 10% (v/v) FCS. Cells were cultured in a humidified environment containing 5% CO2 at 37 °C. For all experiments, the compounds were solubilized in DMSO (Sigma-Aldrich) for a final concentration of 100 mM. From this dilution, other concentrations were made to carry out the cell viability assay. Carboplatin (Fauldcarbo®; Libbs Farmacêutica, São Paulo, SP, Brazil) was used as a control antitumor compound.
(§2) The viability of cancer cells and primary fibroblasts was tested using the MTT assay as described in MACHADO et al., 2021 [49]. Briefly, cancer cells (5 × 10^3 cells/well) were plated in duplicate in a 96-well plate, as indicated. DMSO was diluted in culture medium at the same concentrations and was used as a negative control, representing 100% cell viability. After 48 h of treatment, cells were incubated for 3.5 h with 5 mg/mL of MTT reagent (3,4,5-dimethiazol-2,5-diphenyltetrazoliumbromide) (Sigma-Aldrich Co., St. Louis, MO, USA) diluted in culture medium. Subsequently, the formazan crystals were dissolved by MTT solvent (50% Methanol and 50% DMSO), and the absorbance was read at 560 nm using the EPOCH microplate spectrophotometer (BioTekInstruments, Winooski, VT, USA).
(§3) IC50 values for the MTT assay were obtained by non-linear regression using GraphPad Prism 5.0 software (GraphPad, San Diego, CA, USA) from at least three independent experiments. […] The selectivity index was calculated as: S.I. = IC50 of the compound in fibroblasts/IC50 of the same compound in tumor cells.

[2] = test system: SCC9 cells; test: MTT cell viability (cytotoxicity) assay, SCC9; format: cell-based, human; details: for S.I.: IC50 in normal oral fibroblasts / IC50 in SCC9
Method: as §1, §2
IC50 values for the MTT assay were obtained by non-linear regression using GraphPad Prism 5.0 software (GraphPad, San Diego, CA, USA) from at least three independent experiments. Data are presented as means, ± standard deviation (SD). A log dose response (inhibitor) vs. response curve using the least square method was used to determine the IC50 and SD of the data. The selectivity index was calculated as: S.I. = IC50 of the compound in fibroblasts/IC50 of the same compound in tumor cells.

[3] = test system: HEP G2 (hepatocarcinoma); test: MTT cell viability assay, HEP G2; format: cell-based; details: fibroblasts vs HEP G2
Method: as §1, with “For all experiments, the compounds were solubilized in DMSO (Sigma-Aldrich) for a final concentration of 100 mM. From this dilution, other concentrations were made to carry out the cell viability assay. Carboplatin (Fauldcarbo®; Libbs Farmacêutica, São Paulo, SP, Brazil) was used as a control antitumor compound.” left out
(§4) The viability of cancer cells and primary fibroblasts was tested using the MTT assay as described in MACHADO et al., 2021 [49]. […] Subsequently, the formazan crystals were dissolved by MTT solvent (50% Methanol and 50% DMSO), and the absorbance was read at 560 nm using the EPOCH microplate spectrophotometer (BioTekInstruments, Winooski, VT, USA).
as §3

[4] = test system: HT-29 (colon adenocarcinoma); test: MTT cell viability assay, HT-29; format: cell-based; details: fibroblasts vs HT-29
Method: as §1, with “For all experiments, the compounds were solubilized in DMSO (Sigma-Aldrich) for a final concentration of 100 mM. From this dilution, other concentrations were made to carry out the cell viability assay. Carboplatin (Fauldcarbo®; Libbs Farmacêutica, São Paulo, SP, Brazil) was used as a control antitumor compound.” left out
as §4, §3

Structure (SMILES) | Average S.I. [1] | S.I. [2] | also measured
N.N.O=C([O-])C1(C(=O)[O-])CCC1.[Pt+2] [Carboplatin, reference compound] | 2.67 | 2.46 | –
CCCOC(=O)c1cc(OC)c(OC)c(OC)c1 [Compound 3, Propyl 3,4,5–trimethoxybenzoate] | – | 4.20 | –
COc1cc(C(=O)OC(C)C)cc(OC)c1OC [Compound 4, Isopropyl 3,4,5–trimethoxybenzoate] | 4.79 | 4.81 | –
CCCCOC(=O)c1cc(OC)c(OC)c(OC)c1 [Compound 5, Butyl 3,4,5–trimethoxybenzoate] | – | 2.50 | times more potent than N-butyl-3,4,5-trimethoxybenzoamide (13) ([2]; SCC9 IC50 ratio): 2.3
COc1cc(C(=O)OCCC(C)C)cc(OC)c1OC [Compound 6, Isopentyl 3,4,5–trimethoxybenzoate] | – | 3.56 | –
CCCCCOC(=O)c1cc(OC)c(OC)c(OC)c1 [Compound 7, Pentyl 3,4,5–trimethoxybenzoate] | – | < 2 and 1.62 | –
COc1ccc(COC(=O)c2cc(OC)c(OC)c(OC)c2)cc1 [Compound 9, 4-Methoxy-benzyl 3,4,5–trimethoxybenzoate] | 15.42 | > 16 and 16.02 | S.I. [3]: > 100 and 111.7; S.I. [4]: > 100 and 101.3; times more potent than Carboplatin ([2]; SCC9 IC50 ratio): 4.5
CCCCNC(=O)c1cc(OC)c(OC)c(OC)c1 [Compound 13, N-Butyl-3,4,5–trimethoxybenzamide] | – | 5.03 | –
